The values below come from patent US20110091952A1.

This assay has as its target CurM TE, C-terminal His-tagged single domain construct (pET24b::TE) (Lyngbya majuscula). Put plainly: analytical size-exclusion chromatography (self-association, homodimer). For orientation: In gel filtration, larger molecules generally elute earlier.

These are yes or no findings as the source states them, for the method shown. Some results given as binding are weak or reduced against the parent protein; the word gives no strength. Tags and fused reporters may be left off the sequences shown.

B1: CurM TE, C-terminal His-tagged single domain construct (pET24b::TE) (enzyme, not shown: small tags and cut ends)
chain: MEEKFLEFGGNQICLCSWGSPEHPVVLCIHGILEQGLAWQEVALPLAAQGYRVVAPDLFGHGRSSHLEMVTSYSSLTFLAQIDRVIQELPDQPLLLVGHSMGAMLATAIASVRPKKIKELILVELPLPAEESKKESAVNQLTTCLDYLSSTPQHPIFPDVATAASRLRQAIPSLSEEFSYILAQRITQPNQGGVRWSWDAIIRTRSILGLNNLPGGRSQYLEMLKSIQVPTTLVYGDSSKLNRPEDLQQQKMTMTQAKRVFLSGGHNLHIDAAAALASLILTS
Turning to B1, the binding result is recorded as “binds”.
